Experimental data as given in ChEMBL document CHEMBL4513148, “CO-ADD screening of Stellenbosch University (South Africa) compounds”.
This is one part of the list. Potency and affinity values are given separately.

These molecules were tested on Acinetobacter baumannii. Conditions: Concentration 32 ug.mL-1; ASSAY_TEST Inhibition of Bacterial Growth; detection method Absorption (OD600); MEDIA CAMHB; plate type 384well; NBS; CORNING #3640; time 18 hr.

Structure (SMILES)	Inhibition
CCCCCCCNC(=O)CCNC(=O)C(O)C(C)(C)C (stereo not drawn)	21.36%
CCCCCCCNC(=S)CCNC(=O)[C@H](O)C(C)(C)CO	24.29%
CC(C)(CO)[C@H](O)C(=O)NCCC(=O)NCc1cn(C[C@H]2O[C@@H](n3ccc(N)nc3=O)[C@H](O)[C@@H]2O)nn1	13.48%
CC(CC(=O)NCCc1ccccc1)NC(=O)[C@H](O)C(C)(C)CO (stereo partly drawn)	11.11%
C#CCNC(=O)[C@H](O)C(C)(C)CO	15.73%
CC(C)(C)C(O)C(=O)NCCC(=O)NCCc1ccccc1 (stereo not drawn)	11.61%
CC(C)(CO)[C@H](O)C(=O)NCCCc1cn(C[C@H]2O[C@@H](n3ccc(N)nc3=O)[C@H](O)[C@@H]2O)nn1	7.83%
CC(C)(COP(=O)(O)O)[C@@H](O)C(=O)NCCC(=O)NCCc1ccccc1	19.51%
CCCCCCCNS(=O)(=O)CCNC(=O)[C@H](O)C(C)(C)CO	20.89%
CCCCCCNNC(=O)CCNC(=O)[C@H](O)C(C)(C)CO	17.22%
CC(C)(CO)[C@@H](O)C(=O)N/C=C/C(=O)NCCc1ccccc1	15.01%
CC(C)(CO)[C@H](O)C(=O)NCCC(=O)OCc1cn(C[C@H]2O[C@@H](n3ccc(N)nc3=O)[C@H](O)[C@@H]2O)nn1	13.94%
CC(C)(CO)[C@@H](O)C(=O)NCCC(=S)NCCc1ccccc1	12.94%
CC(C)(CO)C(O)C(=O)NCCCOP(=O)(O)OCC1OC(n2ccc(N)nc2=O)C(O)C1O (stereo not drawn)	12.12%
CC(C)(CO)[C@@H](O)C(=O)NCCC(=O)NNCc1ccccc1	10.95%
CC(C)(CN)C(O)C(=O)NCCC(=O)NCCc1ccccc1 (stereo not drawn)	20.01%
CC(C)(CO)[C@H](O)C(=O)NCCc1cn(C[C@H]2O[C@@H](n3ccc(N)nc3=O)[C@H](O)[C@@H]2O)nn1	10.71%
CC(C)(CO)[C@H](O)C(=O)NCc1cn(C[C@H]2O[C@@H](n3ccc(N)nc3=O)[C@H](O)[C@@H]2O)nn1	12.88%

A few values from the list:
CCCCCCNNC(=O)CCNC(=O)[C@H](O)C(C)(C)CO | Inhibition: 17.22%
CC(C)(CO)[C@H](O)C(=O)NCCC(=O)OCc1cn(C[C@H]2O[C@@H](n3ccc(N)nc3=O)[C@H](O)[C@@H]2O)nn1 | Inhibition: 13.94%
